Assay results from the supplement of paper PMC6411743.
± gives the standard deviation of the averaged measurements. Some of the results follow.

Amino acid sequences for entries named in this document (tags omitted). A change or cut given only in a name is not applied to a line headed by its entry.
UniProt Q9UGU0: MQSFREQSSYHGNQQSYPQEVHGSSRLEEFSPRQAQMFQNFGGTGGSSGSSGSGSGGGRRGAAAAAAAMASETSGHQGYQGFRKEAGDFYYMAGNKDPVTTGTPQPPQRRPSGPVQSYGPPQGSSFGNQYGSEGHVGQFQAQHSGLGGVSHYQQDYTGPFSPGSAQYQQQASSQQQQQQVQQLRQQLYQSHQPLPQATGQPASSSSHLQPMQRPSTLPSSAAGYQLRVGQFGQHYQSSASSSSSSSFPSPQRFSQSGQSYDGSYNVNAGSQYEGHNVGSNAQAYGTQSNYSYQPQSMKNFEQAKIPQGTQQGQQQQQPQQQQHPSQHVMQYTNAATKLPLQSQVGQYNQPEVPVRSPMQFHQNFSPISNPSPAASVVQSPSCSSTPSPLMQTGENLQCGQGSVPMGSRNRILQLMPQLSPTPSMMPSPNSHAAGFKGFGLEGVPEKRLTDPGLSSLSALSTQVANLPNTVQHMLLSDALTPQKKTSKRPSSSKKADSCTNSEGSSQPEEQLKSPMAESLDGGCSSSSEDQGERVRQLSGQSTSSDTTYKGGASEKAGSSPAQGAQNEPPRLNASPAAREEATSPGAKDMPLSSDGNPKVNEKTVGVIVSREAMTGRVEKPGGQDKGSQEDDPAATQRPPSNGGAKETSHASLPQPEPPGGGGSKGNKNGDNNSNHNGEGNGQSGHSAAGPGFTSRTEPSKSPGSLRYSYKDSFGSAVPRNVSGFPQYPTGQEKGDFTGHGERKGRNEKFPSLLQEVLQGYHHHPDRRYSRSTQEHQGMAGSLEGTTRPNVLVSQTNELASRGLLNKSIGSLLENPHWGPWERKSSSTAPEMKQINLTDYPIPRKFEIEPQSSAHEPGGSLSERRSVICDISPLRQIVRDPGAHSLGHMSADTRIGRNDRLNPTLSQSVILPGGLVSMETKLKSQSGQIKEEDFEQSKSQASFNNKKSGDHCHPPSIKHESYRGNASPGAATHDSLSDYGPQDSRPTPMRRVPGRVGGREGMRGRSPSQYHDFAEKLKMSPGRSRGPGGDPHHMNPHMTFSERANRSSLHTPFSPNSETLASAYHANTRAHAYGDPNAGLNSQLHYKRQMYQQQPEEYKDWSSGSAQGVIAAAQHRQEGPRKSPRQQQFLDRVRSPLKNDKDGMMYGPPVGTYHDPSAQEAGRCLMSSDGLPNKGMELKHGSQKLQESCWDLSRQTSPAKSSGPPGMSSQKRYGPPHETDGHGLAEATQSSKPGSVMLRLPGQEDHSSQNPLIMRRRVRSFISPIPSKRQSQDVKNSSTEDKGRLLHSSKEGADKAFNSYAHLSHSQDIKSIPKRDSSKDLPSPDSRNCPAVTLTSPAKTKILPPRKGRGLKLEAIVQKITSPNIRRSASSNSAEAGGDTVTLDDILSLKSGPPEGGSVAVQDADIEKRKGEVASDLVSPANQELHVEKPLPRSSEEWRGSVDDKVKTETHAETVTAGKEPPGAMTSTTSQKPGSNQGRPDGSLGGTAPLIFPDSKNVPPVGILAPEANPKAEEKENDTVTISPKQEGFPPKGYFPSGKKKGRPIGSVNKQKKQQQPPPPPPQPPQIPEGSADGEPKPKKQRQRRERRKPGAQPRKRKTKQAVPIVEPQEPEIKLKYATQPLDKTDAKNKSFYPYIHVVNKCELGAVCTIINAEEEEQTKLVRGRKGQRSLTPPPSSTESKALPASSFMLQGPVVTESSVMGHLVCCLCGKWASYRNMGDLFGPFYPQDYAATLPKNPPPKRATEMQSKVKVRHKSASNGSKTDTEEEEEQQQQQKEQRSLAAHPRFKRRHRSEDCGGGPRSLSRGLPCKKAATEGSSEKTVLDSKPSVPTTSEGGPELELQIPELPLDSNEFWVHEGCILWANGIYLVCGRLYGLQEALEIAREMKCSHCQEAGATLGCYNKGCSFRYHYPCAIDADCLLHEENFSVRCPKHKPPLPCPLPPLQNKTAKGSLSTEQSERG
UniProt Q9UHW5, whole entry: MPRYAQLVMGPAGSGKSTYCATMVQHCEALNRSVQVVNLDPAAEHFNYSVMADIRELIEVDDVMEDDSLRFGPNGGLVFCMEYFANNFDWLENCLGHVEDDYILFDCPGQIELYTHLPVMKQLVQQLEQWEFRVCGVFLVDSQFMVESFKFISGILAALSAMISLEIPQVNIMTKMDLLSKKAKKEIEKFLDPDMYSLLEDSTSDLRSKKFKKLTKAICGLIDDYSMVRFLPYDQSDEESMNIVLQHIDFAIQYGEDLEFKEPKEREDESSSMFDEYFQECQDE
UniProt Q9NY93: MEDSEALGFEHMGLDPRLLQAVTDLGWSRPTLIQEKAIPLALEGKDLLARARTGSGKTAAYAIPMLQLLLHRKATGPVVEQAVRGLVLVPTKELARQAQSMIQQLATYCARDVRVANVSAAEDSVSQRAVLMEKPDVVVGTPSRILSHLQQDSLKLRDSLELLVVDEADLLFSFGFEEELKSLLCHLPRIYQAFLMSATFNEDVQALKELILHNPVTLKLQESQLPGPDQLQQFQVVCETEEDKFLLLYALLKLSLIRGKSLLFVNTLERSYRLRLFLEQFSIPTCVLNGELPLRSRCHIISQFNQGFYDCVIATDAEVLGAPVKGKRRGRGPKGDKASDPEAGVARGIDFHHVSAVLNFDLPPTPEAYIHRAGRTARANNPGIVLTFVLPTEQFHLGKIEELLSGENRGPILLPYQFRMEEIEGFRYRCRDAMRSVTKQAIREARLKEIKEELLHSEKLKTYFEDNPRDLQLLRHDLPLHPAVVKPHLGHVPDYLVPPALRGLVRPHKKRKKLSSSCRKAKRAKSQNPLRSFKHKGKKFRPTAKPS
UniProt Q9P1F3: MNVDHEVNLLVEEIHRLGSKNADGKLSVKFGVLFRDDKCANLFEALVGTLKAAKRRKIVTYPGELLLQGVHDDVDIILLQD
UniProt Q9UHQ9: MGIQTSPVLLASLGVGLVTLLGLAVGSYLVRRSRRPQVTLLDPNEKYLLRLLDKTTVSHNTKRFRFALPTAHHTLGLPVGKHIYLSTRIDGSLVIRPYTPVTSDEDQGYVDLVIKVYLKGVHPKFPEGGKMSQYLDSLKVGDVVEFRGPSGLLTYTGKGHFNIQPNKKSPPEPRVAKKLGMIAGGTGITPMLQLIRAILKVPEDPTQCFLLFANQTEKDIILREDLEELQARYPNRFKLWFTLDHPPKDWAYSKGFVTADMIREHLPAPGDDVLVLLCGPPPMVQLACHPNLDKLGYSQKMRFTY
UniProt Q9UKV5, whole entry: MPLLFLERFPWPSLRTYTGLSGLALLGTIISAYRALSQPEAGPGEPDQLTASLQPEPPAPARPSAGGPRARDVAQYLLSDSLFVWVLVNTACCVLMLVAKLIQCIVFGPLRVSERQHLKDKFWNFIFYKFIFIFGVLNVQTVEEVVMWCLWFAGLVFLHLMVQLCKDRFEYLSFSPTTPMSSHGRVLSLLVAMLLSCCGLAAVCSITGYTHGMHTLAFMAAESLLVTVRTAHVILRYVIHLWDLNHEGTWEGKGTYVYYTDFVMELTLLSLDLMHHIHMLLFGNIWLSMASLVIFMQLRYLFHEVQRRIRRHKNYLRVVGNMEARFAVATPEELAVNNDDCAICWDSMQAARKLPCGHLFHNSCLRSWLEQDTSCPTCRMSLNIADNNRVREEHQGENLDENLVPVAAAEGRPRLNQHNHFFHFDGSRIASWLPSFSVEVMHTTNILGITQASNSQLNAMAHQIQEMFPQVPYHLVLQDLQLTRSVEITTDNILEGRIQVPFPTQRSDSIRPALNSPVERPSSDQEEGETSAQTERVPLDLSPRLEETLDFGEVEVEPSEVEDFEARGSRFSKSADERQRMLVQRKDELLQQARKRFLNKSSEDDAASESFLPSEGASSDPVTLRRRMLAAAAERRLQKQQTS
UniProt Q9NXX6: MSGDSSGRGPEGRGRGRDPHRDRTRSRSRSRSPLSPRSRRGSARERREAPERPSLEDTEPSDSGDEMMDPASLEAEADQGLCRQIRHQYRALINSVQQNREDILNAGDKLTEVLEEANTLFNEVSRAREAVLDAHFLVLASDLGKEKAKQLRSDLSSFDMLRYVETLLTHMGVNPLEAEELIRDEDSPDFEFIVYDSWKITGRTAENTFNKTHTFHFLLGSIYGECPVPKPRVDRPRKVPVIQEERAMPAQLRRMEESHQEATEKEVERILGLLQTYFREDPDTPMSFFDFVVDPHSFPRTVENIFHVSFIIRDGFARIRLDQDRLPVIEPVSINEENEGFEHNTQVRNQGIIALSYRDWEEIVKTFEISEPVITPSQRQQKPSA
UniProt Q9P258, whole entry: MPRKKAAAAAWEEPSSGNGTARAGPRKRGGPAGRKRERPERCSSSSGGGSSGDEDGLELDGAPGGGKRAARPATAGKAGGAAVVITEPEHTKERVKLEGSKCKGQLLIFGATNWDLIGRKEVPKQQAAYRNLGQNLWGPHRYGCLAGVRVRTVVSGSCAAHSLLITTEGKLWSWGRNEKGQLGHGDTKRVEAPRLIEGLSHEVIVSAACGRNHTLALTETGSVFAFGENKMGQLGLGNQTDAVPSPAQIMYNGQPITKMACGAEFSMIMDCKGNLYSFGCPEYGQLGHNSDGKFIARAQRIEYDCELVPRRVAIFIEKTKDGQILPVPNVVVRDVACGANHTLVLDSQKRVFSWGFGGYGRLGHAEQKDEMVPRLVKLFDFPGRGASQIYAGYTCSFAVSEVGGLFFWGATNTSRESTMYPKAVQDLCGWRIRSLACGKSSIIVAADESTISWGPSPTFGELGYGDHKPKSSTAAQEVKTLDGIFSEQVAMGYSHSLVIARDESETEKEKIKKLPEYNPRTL
UniProt Q9ULH0: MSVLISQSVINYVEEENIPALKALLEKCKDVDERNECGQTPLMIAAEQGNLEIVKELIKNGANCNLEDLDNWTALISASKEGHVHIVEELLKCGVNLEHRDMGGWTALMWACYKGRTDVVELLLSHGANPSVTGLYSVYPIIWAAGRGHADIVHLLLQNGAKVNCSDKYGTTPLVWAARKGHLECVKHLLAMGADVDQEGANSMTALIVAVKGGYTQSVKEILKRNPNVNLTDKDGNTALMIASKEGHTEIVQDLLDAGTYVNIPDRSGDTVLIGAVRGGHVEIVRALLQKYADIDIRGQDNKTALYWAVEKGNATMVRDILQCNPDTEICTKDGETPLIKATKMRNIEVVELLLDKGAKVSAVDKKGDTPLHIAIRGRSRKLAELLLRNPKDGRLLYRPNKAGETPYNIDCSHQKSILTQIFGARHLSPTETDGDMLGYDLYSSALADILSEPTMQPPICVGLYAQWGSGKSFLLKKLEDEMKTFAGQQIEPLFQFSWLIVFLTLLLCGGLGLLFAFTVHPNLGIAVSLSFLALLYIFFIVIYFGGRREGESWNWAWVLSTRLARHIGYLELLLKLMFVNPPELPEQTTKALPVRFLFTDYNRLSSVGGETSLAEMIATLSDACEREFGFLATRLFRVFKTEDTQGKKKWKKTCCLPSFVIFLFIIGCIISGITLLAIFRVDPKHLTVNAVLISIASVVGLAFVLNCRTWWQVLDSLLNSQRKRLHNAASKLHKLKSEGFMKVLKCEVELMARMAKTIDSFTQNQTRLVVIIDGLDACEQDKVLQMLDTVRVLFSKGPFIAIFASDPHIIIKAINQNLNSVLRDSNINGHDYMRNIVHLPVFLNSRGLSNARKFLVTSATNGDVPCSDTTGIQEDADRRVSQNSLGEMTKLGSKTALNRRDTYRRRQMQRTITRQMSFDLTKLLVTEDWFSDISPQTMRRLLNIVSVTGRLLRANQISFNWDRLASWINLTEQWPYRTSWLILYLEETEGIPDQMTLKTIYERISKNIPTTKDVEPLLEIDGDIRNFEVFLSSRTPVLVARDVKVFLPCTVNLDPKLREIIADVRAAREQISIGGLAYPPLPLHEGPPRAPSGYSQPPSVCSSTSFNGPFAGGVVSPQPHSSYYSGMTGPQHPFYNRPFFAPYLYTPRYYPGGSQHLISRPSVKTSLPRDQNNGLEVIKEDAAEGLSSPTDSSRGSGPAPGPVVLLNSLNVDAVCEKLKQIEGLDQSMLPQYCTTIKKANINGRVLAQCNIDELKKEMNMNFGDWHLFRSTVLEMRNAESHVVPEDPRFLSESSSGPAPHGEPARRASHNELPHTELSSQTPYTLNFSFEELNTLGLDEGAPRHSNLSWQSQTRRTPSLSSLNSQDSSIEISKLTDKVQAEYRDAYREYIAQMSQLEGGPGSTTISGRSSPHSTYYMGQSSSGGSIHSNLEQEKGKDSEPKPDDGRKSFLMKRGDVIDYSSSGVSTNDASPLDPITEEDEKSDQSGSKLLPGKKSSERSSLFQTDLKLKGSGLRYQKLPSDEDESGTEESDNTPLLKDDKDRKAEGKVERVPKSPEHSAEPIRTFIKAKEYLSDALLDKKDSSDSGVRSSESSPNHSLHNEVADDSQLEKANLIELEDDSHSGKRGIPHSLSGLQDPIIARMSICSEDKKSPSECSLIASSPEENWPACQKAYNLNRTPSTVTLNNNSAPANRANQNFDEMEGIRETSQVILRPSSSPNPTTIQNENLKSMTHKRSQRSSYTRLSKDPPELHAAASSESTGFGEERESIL

Compound: Nc1nc2c(ncn2[C@@H]2O[C@H](COP(=O)(O)OP(=O)(O)OP(=O)(O)O)[C@@H](O)[C@H]2O)c(=O)[nH]1 [guanosine triphosphate]
Experiment: NP40-soluble protein abundance relative to vehicle (solubility fold change) (ratio); higher = more soluble protein in presence of GTP
In short: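 Eight concentrations, 0.1 to 10 mM, were tested on Jurkat crude lysate for 10 min at room temperature and then 3 min at 37 °C, in three independent experiments. The lysate was solubilised with 0.8% NP40 and benzonase, ultracentrifuged, and the supernatant TMT-labelled for LC-MS/MS. Each value is the fold change against the detergent-processed vehicle in its own replicate, from vsn-normalised intensities.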

Target	NP40-soluble protein abundance (concentration: 0.1mM)	NP40-soluble protein abundance (concentration: 0.5mM)	NP40-soluble protein abundance (concentration: 1mM)	NP40-soluble protein abundance (concentration: 2mM)	NP40-soluble protein abundance (concentration: 4mM)	NP40-soluble protein abundance (concentration: 6mM)	NP40-soluble protein abundance (concentration: 8mM)	NP40-soluble protein abundance (concentration: 10mM)
UniProt Q9UGU0 and related entries	1.03 ± 0.033	1.01 ± 0.047	1.06 ± 0.036	1.15 ± 0.04	1.24 ± 0.11	1.34 ± 0.14	1.54 ± 0.3	1.71 ± 0.43
UniProt Q9UGU5 and related entries	0.97 ± 0.092	1.02 ± 0.14	1.05 ± 0.098	1.03 ± 0.13	1.08 ± 0.16	1.19 ± 0.16	1.11 ± 0.16	1.18 ± 0.16
UniProt Q9UHW5 and related entries	1.08 ± 0.033	1.12 ± 0.17	1 ± 0.17	1.1 ± 0.28	1.03 ± 0.13	1.05 ± 0.16	0.981 ± 0.04	1.04 ± 0.099
VAPA (UniProt Q9P0L0)	0.9457 ± 0.0073	0.957 ± 0.051	0.98 ± 0.03	0.951 ± 0.075	0.929 ± 0.047	0.965 ± 0.063	0.958 ± 0.03	0.956 ± 0.051
UniProt Q9UK61 and related entries	1.06 ± 0.04	1.03 ± 0.022	1.045 ± 0.01	1.06 ± 0.032	1.08 ± 0.083	1.1 ± 0.067	1.13 ± 0.1	1.12 ± 0.09
CHMP5 (UniProt Q9NZZ3)	0.966 ± 0.082	0.946 ± 0.034	0.977 ± 0.056	0.943 ± 0.018	0.844 ± 0.065	0.896 ± 0.091	1.02 ± 0.03	1.06 ± 0.046
UniProt Q9NY93 and related entries	1.02 ± 0.045	1.01 ± 0.035	0.984 ± 0.022	0.997 ± 0.021	0.989 ± 0.063	0.98 ± 0.035	0.989 ± 0.036	1.02 ± 0.068
UniProt Q9P1F3	0.719 ± 0.25	0.744 ± 0.22	0.707 ± 0.18	0.751 ± 0.24	0.794 ± 0.29	0.729 ± 0.27	0.662 ± 0.18	0.745 ± 0.22
UniProt Q9P260 and related entries	0.984 ± 0.054	0.9732 ± 0.0063	1.04 ± 0.021	0.981 ± 0.034	1.05 ± 0.072	1.03 ± 0.012	1.042 ± 0.0015	0.942 ± 0.032
UniProt Q9UM21	1.02 ± 0.027	1.03 ± 0.034	1.015 ± 0.0023	0.987 ± 0.017	0.958 ± 0.027	0.961 ± 0.018	0.947 ± 0.008	0.947 ± 0.046
TERF2IP (UniProt Q9NYB0)	0.968 ± 0.047	0.967 ± 0.073	0.979 ± 0.057	0.964 ± 0.097	0.939 ± 0.066	0.966 ± 0.068	0.979 ± 0.056	0.977 ± 0.077
CCDC88C (UniProt Q9P219)	1.02 ± 0.018	0.991 ± 0.025	1 ± 0.067	0.972 ± 0.068	0.932 ± 0.079	0.942 ± 0.046	0.964 ± 0.028	0.941 ± 0.062
CYB5R1 (UniProt Q9UHQ9)	0.993 ± 0.029	1.07 ± 0.053	0.92 ± 0.051	0.934 ± 0.083	0.869 ± 0.09	0.877 ± 0.067	0.853 ± 0.072	0.872 ± 0.086
UniProt Q9UBL0 and related entries	0.958 ± 0.092	0.962 ± 0.076	0.954 ± 0.1	0.901 ± 0.11	0.904 ± 0.11	0.978 ± 0.13	0.905 ± 0.14	0.885 ± 0.11
ENOPH1 (UniProt Q9UHY7)	0.969 ± 0.037	0.948 ± 0.044	0.952 ± 0.099	0.91 ± 0.084	0.866 ± 0.1	0.901 ± 0.1	0.856 ± 0.1	0.857 ± 0.1
UniProt Q9ULL5-3	1.11 ± 0.1	1.08 ± 0.094	1.07 ± 0.099	1.01 ± 0.092	1 ± 0.11	1.02 ± 0.092	1.03 ± 0.068	1.04 ± 0.074
AMFR (UniProt Q9UKV5)	1.03 ± 0.011	1.03 ± 0.036	1.06 ± 0.03	1.06 ± 0.017	1.04 ± 0.019	1.01 ± 0.034	1.04 ± 0.1	1.05 ± 0.081
SEL1L (UniProt Q9UBV2)	1.02 ± 0.061	1 ± 0.051	1.03 ± 0.063	0.977 ± 0.039	1.01 ± 0.076	1.01 ± 0.032	1.04 ± 0.048	0.994 ± 0.017
UniProt Q9NZJ4 and related entries	1.06 ± 0.12	1.09 ± 0.091	1.03 ± 0.062	1.06 ± 0.13	1.05 ± 0.11	1.04 ± 0.06	0.981 ± 0.069	0.957 ± 0.087
UniProt Q9P0I2	1.02 ± 0.03	1.04 ± 0.026	1.02 ± 0.04	1.03 ± 0.063	1 ± 0.046	1.01 ± 0.039	0.982 ± 0.014	0.971 ± 0.023
RNF181 (UniProt Q9P0P0)	0.961 ± 0.027	0.925 ± 0.028	1.05 ± 0.077	1.03 ± 0.045	1.01 ± 0.013	1.02 ± 0.05	1.04 ± 0.1	1.09 ± 0.075
TXNL4B (UniProt Q9NX01)	0.968 ± 0.014	1.06 ± 0.097	1.06 ± 0.11	0.985 ± 0.03	1.01 ± 0.03	1.02 ± 0.088	0.99 ± 0.059	1 ± 0.067
NSMCE4A (UniProt Q9NXX6)	1.02 ± 0.014	1.07 ± 0.022	1.01 ± 0.017	1.05 ± 0.034	1.01 ± 0.035	1.03 ± 0.041	1.03 ± 0.012	1.05 ± 0.0099
IRAK4 (UniProt Q9NWZ3)	1 ± 0.012	0.983 ± 0.052	0.931 ± 0.03	0.919 ± 0.035	0.898 ± 0.041	0.904 ± 0.033	0.871 ± 0.066	0.862 ± 0.054
RCC2 (UniProt Q9P258)	1.02 ± 0.078	1.03 ± 0.062	0.902 ± 0.084	0.882 ± 0.16	0.842 ± 0.22	0.883 ± 0.11	0.897 ± 0.083	0.851 ± 0.11
UniProt Q9P0N9 and related entries	0.968 ± 0.028	0.932 ± 0.015	0.859 ± 0.08	0.902 ± 0.013	0.87 ± 0.059	0.863 ± 0.045	0.835 ± 0.077	0.857 ± 0.073
UniProt Q9ULH0 and related entries	1.27 ± 0.34	1.19 ± 0.15	1.28 ± 0.43	1.33 ± 0.47	1.35 ± 0.38	1.29 ± 0.28	1.18 ± 0.23	1.32 ± 0.28
AKAP11 (UniProt Q9UKA4)	0.999 ± 0.17	0.999 ± 0.08	1.09 ± 0.14	1.03 ± 0.079	1.11 ± 0.18	1.09 ± 0.061	1.04 ± 0.14	1.02 ± 0.069
UniProt Q9NW15-5|Q9NW15 and related entries	1.18 ± 0.14	1.07 ± 0.045	1.1 ± 0.12	0.978 ± 0.17	1.06 ± 0.17	0.981 ± 0.15	0.975 ± 0.11	0.987 ± 0.16
UniProt Q9NYR9 and related entries	1.09 ± 0.056	1.1 ± 0.044	1.1 ± 0.047	1.11 ± 0.06	1.14 ± 0.045	1.11 ± 0.076	1.13 ± 0.071	1.09 ± 0.093

Some of the entries above, set out differently:
CHMP5 (UniProt Q9NZZ3)
  NP40-soluble protein abundance (concentration: 0.1mM): 0.966 ± 0.082
  NP40-soluble protein abundance (concentration: 0.5mM): 0.946 ± 0.034
  NP40-soluble protein abundance (concentration: 1mM): 0.977 ± 0.056
  NP40-soluble protein abundance (concentration: 2mM): 0.943 ± 0.018
  NP40-soluble protein abundance (concentration: 4mM): 0.844 ± 0.065
  NP40-soluble protein abundance (concentration: 6mM): 0.896 ± 0.091
  NP40-soluble protein abundance (concentration: 8mM): 1.02 ± 0.03
  NP40-soluble protein abundance (concentration: 10mM): 1.06 ± 0.046
UniProt Q9NY93 and related entries
  NP40-soluble protein abundance (concentration: 0.1mM): 1.02 ± 0.045
  NP40-soluble protein abundance (concentration: 0.5mM): 1.01 ± 0.035
  NP40-soluble protein abundance (concentration: 1mM): 0.984 ± 0.022
  NP40-soluble protein abundance (concentration: 2mM): 0.997 ± 0.021
  NP40-soluble protein abundance (concentration: 4mM): 0.989 ± 0.063
  NP40-soluble protein abundance (concentration: 6mM): 0.98 ± 0.035
  NP40-soluble protein abundance (concentration: 8mM): 0.989 ± 0.036
  NP40-soluble protein abundance (concentration: 10mM): 1.02 ± 0.068
